No constants are given. Whether binding was seen depends on the method and setting. Binding can be weak; no strength is given.
B1: 6B5 (antibody, human IgG1, kappa, V domains shown)
VH: QVQLVESGPGLVKPSQTLSLTCTVSDGSISSGGYYWSWIRQHPGKGLEWIGYIYYSGGTYYSPSLKSRVTISVDTSKNQFSLKLTSVTAADTAVYYCARRAGYSSSFDSWGQGILVTVSS
VL: EIVLTQSPLSLPVTPGEPASISCRSSQSLLYSNGYTYLDWYLQKPGQSPQFLIYLGFNRASGVPDRFSGSGSGTDFTLKISRVEAEDVGVYYCMQGLQTPYTFGQGTKLEIKR
B2: 10D7 (antibody, human IgG1, kappa, V domains shown)
VH: QVQLVQSGPGLVKPSETLSLTCTVSGGSISRSSYYWGWIRQPPGKGLEWIGNIFYAGSTYYNPSLKSRVTISVDTSKNQFSLKLSSVTAADTAVYYCARRITGTTGWFDPWGQGTLVTVSS
VL: DIQLTQSPSSLSASVGDRVTITCRASQGIRNDLGWYQQKPGKAPKLLIYAASTLQSGVPSRFSGSGSGTDFTLTISSLQPEDFATYYCLQDYNYPRTFGQGTKVEIKR
B3: 10F5 (antibody, human IgG1, kappa, V domains shown)
VH: QVQLVQSGAEVKKPGSSVKVSCKASGGTFSSQAISWVRQAPGQGLEWMGRIIPMLGIGDYAQSFQGRVTITADKSTSTAYLEVSSLGSEDTAVYYCAREGIAALGTNYYYGMDVWGQGTAVTVSS
VL: EIVMTQSPSSVSASVGDRVTITCRASQGISRWLAWYQQKPGKAPKLLIYVASSLQSGVPSRFSGSGSGTDFTLTISSLQPEDFATYYCQQANSFPFTFGPGTKVDIRR

Target: monkey B7-H3/CD276 protein, with His tag (monkey)
Assay: SPR (Biacore T200)

Row | Binder | binding
1 | B1 | binds
2 | B2 | binds
3 | B3 | binds

Source: patent US20260125477A1
